# Library screen at single concentrations

Protein sequences, listed by entry. Tags and fused reporters are not part of them. Residues count along the entry.
UniProt Q4DA54, 1-478: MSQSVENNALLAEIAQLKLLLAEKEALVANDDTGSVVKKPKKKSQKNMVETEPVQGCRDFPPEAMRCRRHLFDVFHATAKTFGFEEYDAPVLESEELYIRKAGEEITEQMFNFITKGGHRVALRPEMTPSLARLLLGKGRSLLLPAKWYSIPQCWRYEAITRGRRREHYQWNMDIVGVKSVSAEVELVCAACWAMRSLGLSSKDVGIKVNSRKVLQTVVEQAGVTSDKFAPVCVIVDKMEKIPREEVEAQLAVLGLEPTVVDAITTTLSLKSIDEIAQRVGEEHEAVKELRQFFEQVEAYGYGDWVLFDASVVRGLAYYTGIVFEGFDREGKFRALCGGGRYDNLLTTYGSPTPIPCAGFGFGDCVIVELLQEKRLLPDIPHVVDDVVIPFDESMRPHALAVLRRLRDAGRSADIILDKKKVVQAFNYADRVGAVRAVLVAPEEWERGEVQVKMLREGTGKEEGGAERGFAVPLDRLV
UniProt A4I591, 1-473: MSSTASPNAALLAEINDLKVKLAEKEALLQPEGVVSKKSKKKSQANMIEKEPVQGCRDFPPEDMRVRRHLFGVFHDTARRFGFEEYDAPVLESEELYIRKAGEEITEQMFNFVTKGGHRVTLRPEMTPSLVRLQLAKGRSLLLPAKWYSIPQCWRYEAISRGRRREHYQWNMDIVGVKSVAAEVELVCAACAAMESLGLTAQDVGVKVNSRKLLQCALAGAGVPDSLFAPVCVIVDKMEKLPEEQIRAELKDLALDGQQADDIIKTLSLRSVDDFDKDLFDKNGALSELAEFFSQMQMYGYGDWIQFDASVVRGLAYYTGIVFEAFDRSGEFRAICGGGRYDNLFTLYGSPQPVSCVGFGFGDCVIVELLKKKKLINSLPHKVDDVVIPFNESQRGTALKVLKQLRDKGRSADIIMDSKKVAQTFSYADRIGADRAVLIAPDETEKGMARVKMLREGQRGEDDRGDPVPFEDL
UniProt Q8IDJ8, 1-583: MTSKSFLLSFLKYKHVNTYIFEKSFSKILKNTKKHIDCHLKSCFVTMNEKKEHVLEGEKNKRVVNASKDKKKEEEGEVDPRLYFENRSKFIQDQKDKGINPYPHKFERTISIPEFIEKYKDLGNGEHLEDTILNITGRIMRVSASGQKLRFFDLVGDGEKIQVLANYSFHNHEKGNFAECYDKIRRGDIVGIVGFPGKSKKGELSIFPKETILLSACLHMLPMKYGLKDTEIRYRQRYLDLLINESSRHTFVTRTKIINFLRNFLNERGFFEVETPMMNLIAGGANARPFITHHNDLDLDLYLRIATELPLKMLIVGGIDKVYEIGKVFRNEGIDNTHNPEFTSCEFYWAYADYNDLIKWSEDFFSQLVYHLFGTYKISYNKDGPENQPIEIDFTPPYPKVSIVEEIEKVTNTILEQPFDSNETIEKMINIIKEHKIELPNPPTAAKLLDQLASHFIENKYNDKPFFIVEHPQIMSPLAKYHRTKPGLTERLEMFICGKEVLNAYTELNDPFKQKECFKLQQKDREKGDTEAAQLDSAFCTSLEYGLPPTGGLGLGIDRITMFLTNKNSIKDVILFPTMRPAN
UniProt P9WNZ1, whole entry: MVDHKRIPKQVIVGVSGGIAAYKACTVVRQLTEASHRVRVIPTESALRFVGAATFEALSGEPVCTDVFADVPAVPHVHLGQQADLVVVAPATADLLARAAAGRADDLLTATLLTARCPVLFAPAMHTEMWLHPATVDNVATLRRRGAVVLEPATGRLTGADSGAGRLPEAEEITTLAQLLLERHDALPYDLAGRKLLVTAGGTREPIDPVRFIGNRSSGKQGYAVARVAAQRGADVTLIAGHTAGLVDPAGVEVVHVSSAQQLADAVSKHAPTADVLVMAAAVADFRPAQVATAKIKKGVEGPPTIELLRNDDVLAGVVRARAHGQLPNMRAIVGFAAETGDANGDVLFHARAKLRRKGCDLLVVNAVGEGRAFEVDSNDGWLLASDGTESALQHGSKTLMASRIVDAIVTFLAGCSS

Each number is a percent effect as filed. How 0% and 100% were set is not recorded. Most values in the screen are low, and negative values occur. Compounds were drawn at random from those tested, without regard to their results. Two or more numbers in one place are separate tests of the same structure; such repeats can differ widely. A dash means the value is not listed here; it may have been measured.

TcHisRS: 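Histidine-tRNA ligase, Trypanosoma cruzi CL Brener (UniProt Q4DA54). Enzyme assay of histidyl-tRNA synthetase; the read-out is not stated. Concentration: 30 µM. The record gives no direction; compounds that gave an IC50 in retests scored well above the rest, so higher reads as stronger inhibition. Size under these conditions: about 69,000 compounds, about 31 of them at 50% or above in at least one test.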
LiHisRS: 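Enzyme assay of histidyl-tRNA synthetase; the read-out is not stated. Target: Histidine-tRNA ligase, Leishmania infantum (UniProt A4I591). Tested at 30 µM. Direction is inferred from retests: higher values go with stronger inhibition. The assay is labelled LdHisRS but filed under L. infantum. Size under these conditions: about 69,000 compounds, about 410 of them at 50% or above in at least one test.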
Toxoplasma: 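Assay of Toxoplasma gondii numbers, read through their beta-galactosidase reporter with a colour substrate. Tested at 10 µM. Higher reads as fewer parasites (inferred from which compounds were picked for retests). About 67,000 compounds were tested under these conditions; 0.38% (about 260) showed 50% or more at least once.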
PfKRS1: 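Lysine-tRNA ligase, Plasmodium falciparum 3D7 (UniProt Q8IDJ8). Enzyme assay of the cytosolic lysyl-tRNA synthetase in 384-well plates, read by luminescence. Compounds at 30 µM. Direction is inferred from only a few compounds that gave an IC50; most scored high, so higher reads as stronger inhibition. Of about 69,000 compounds tested this way, about 49 (0.071%) reached 50% or more in at least one test.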
CoaBC: 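Coenzyme A biosynthesis protein CoaBC, Mycobacterium tuberculosis (UniProt P9WNZ1). Enzyme assay of CoaBC with a phosphate dye (Biomol Green) read at 650 nm. Tested at 30 µM. Higher reads as stronger inhibition, judged from the few compounds that gave an IC50. Most strong results did not repeat in a second test. Of about 67,000 compounds tested this way, about 40 (0.06%) reached 50% or more in at least one test.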

Result for Cc1cc(NC(=O)CCn2cncn2)no1 was TcHisRS: 5.579%; LiHisRS: -3.279%; Toxoplasma: 33.99%; PfKRS1: -3.512%; CoaBC: -1.555%. For CN(C)C(=O)COCc1cncc2c1CCN(Cc1cnn(C)c1)C2 the result was TcHisRS: 5.021%; LiHisRS: 14.15%; PfKRS1: 1.729%; CoaBC: -3.636%. For C=C(C)CN1CCN(CCC(=O)Nc2ccccc2C(N)=O)CC1 the result was TcHisRS: -2.484%; LiHisRS: 20%; Toxoplasma: -20.32%; PfKRS1: 8.002%; CoaBC: 1.899%. Result for OCCn1cc(CN2CCN(CCOc3ccc(F)cc3)CC2)cn1 was TcHisRS: 9.038%; LiHisRS: 16.51%; Toxoplasma: 10.63%; PfKRS1: -0.8959%; CoaBC: 5.106%. Cc1nsc(NC(=O)N2CCC(C(C)(C)O)CC2)n1 read TcHisRS: 3.39%; LiHisRS: 3.774%; Toxoplasma: 0.9038%; PfKRS1: 6.146%; CoaBC: -6.608%.

For CCS(=O)(=O)N1CCc2cc(C(=O)NC)c(NCC(C)C)nc2CC1 the result was TcHisRS: 7.609%; LiHisRS: 17.11%; Toxoplasma: -3.263%; PfKRS1: 6.346%; CoaBC: 9.346%. For COc1cccc(-c2nc(C)c(C(=O)N[C@H](CO)CC(C)C)s2)c1 the result was TcHisRS: 5.263%; LiHisRS: 15.79%; Toxoplasma: 5.431%; PfKRS1: -1.285%; CoaBC: -1.768%. Result for Cc1ccsc1CN(CCCO)Cc1nc2ccccc2[nH]1 was TcHisRS: 3.042%; LiHisRS: 3.448%; Toxoplasma: 7.765%; PfKRS1: -1.717%; CoaBC: 0.618%. Cc1ccc(S(=O)(=O)NC(=O)CCc2cscn2)cc1Cl read TcHisRS: 3.509%; LiHisRS: -5.31%; Toxoplasma: 8.726%; PfKRS1: 1.005%; CoaBC: -11.83%. CCOC(=O)[C@H]1CNC[C@@H]1C(F)(F)F read TcHisRS: 8.333%; LiHisRS: 12.5%; Toxoplasma: 11.62%; PfKRS1: 6.039%; CoaBC: -0.6904%.

With CC(=O)NCC(=O)N1CCCC2(CCC(=O)N(CCc3c[nH]cn3)C2)C1 (centres undefined) the screen gave TcHisRS: 5.941%; LiHisRS: 1.37%; Toxoplasma: -2.351%; PfKRS1: 0.04993%; CoaBC: -6.036%. With Fc1ccc(F)c(CN2CCC(c3cnccn3)CC2)c1 the screen gave TcHisRS: 0%; LiHisRS: 4.225%; PfKRS1: -1.613%; CoaBC: 4.513%. With O=C(CN1CCCC(c2ccn[nH]2)C1)Nc1nncs1 (centres undefined) the screen gave TcHisRS: 1.685%; LiHisRS: -10.26%; Toxoplasma: 6.939%; PfKRS1: 5.16%; CoaBC: 20.32% & 7.407%. With c1cnc(N2CCCC(NCc3ccc(-n4ccnc4)cc3)C2)nc1 (centres undefined) the screen gave TcHisRS: -2.521%; LiHisRS: 16.53%; PfKRS1: 15.1%; CoaBC: -8.423%. Cn1cc(S(=O)(=O)Nc2ccc3[nH]c(C4CCC4)nc3c2)cn1 gave TcHisRS: 9.524%; LiHisRS: 7.752%; Toxoplasma: -9.071%; PfKRS1: -0.07168%; CoaBC: 2.334%.

Cc1cc(CN(C)C(=O)c2ccc(OC(C)C)nc2)no1 read TcHisRS: 1.695%; LiHisRS: 6.897%; Toxoplasma: -5.643%; PfKRS1: -0.9591%; CoaBC: 0%. Cc1ccc(CN(CCN(C)C)Cc2nc3ccccc3[nH]2)s1 gave TcHisRS: 7.595%; LiHisRS: -4.167%; Toxoplasma: 4.334%; PfKRS1: -2.019%; CoaBC: 2.404%.

Repeated from the top, 2 entries:

Compound	TcHisRS	LiHisRS	Toxoplasma	PfKRS1	CoaBC
Cc1cc(NC(=O)CCn2cncn2)no1	5.579%	-3.279%	33.99%	-3.512%	-1.555%
CN(C)C(=O)COCc1cncc2c1CCN(Cc1cnn(C)c1)C2	5.021%	14.15%	-	1.729%	-3.636%

Measurements from “University of Dundee, Small-Polar-MMV Screening Library” (2021), ChEMBL document CHEMBL3988442.